Measurements reported in PubChem BioAssay AID1671195 (Yale University, 2021)
Test: 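Knockdowns that increase or decrease uptake of fluorescent LDL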 (primary screen). System: human Huh7 hepatoma cells. Reagent: siRNA pool against human genes, 18 nM. Duration: about 2 to 2.5 days of knockdown, then 8 h LDL uptake. Conditions: DiI-labelled LDL at 30 µg/ml for 8 h, in lipoprotein-deficient serum medium. Measurement: 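Fluorescent LDL signal imaged in cells, scaled to the plate median, robust z-score for each replicate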. Scale: robust z-score: higher = more LDL uptake after knockdown. Call rule: 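a gene counts as active if at least two replicate z-scores exceed ±2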.
This is a random part of about 22,000 deposited reagents. In the full data, about 1,510 (6.9%) were called active. 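Active includes knockdowns raising or lowering LDL uptake; positive z-scores mean more uptake, negative mean less.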 Reagents against one gene are numbered here.

LOC391859 (retired record) → robust z-score, replicate 1: 0.979; robust z-score, replicate 2: 0.699; robust z-score, replicate 3: 0.293; activity call: inactive
H3-5 (H3.5 histone) → robust z-score, replicate 1: 1.47; robust z-score, replicate 2: 0.754; robust z-score, replicate 3: 0.546; activity call: inactive
PEX1 (peroxisomal biogenesis factor 1) → robust z-score, replicate 1: -0.987; robust z-score, replicate 2: -0.265; robust z-score, replicate 3: -0.256; activity call: inactive
PRDX2 (peroxiredoxin 2) → robust z-score, replicate 1: 0.215; robust z-score, replicate 2: 0; robust z-score, replicate 3: 0.319; activity call: inactive
CDONP2 (CDON pseudogene 2) → robust z-score, replicate 1: -0.352; robust z-score, replicate 2: -0.027; robust z-score, replicate 3: 0.0478; activity call: inactive
SNX15 (sorting nexin 15) → robust z-score, replicate 1: -0.393; robust z-score, replicate 2: -0.129; robust z-score, replicate 3: -2.42; activity call: inactive
ARHGEF38 (Rho guanine nucleotide exchange factor 38) #1 → robust z-score, replicate 1: 1.03; robust z-score, replicate 2: 0.969; robust z-score, replicate 3: 0.619; activity call: inactive
ARHGEF38 (Rho guanine nucleotide exchange factor 38) #2 → robust z-score, replicate 1: -0.0581; robust z-score, replicate 2: 0.297; robust z-score, replicate 3: 0.956; activity call: inactive
CRLF2 (cytokine receptor like factor 2) → robust z-score, replicate 1: 2.58; robust z-score, replicate 2: 1.06; robust z-score, replicate 3: 1.56; activity call: inactive
LOC442273 (retired record) → robust z-score, replicate 1: -1.77; robust z-score, replicate 2: -1.77; robust z-score, replicate 3: -1.61; activity call: inactive
LINC02153 (long independently transcribed non-coding RNA 2153) → robust z-score, replicate 1: -0.856; robust z-score, replicate 2: -0.914; robust z-score, replicate 3: -0.915; activity call: inactive
RGS9 (regulator of G protein signaling 9) → robust z-score, replicate 1: 0.144; robust z-score, replicate 2: 0.582; robust z-score, replicate 3: 0.519; activity call: inactive
PBRM1 (polybromo 1) → robust z-score, replicate 1: -1.17; robust z-score, replicate 2: -0.388; robust z-score, replicate 3: -0.826; activity call: inactive
TXNRD3 (thioredoxin reductase 3) → robust z-score, replicate 1: 1.07; robust z-score, replicate 2: 0.595; robust z-score, replicate 3: 1.26; activity call: inactive
YJU2 (YJU2 splicing factor homolog) → robust z-score, replicate 1: -1.06; robust z-score, replicate 2: 0.0298; robust z-score, replicate 3: -1.04; activity call: inactive
CAPZA3 (capping actin protein of muscle Z-line subunit alpha 3) → robust z-score, replicate 1: -0.61; robust z-score, replicate 2: -0.578; robust z-score, replicate 3: -0.479; activity call: inactive

Taken from above.
Value of LOC442273 (retired record) under “robust z-score, replicate 3”: -1.61
Under “activity call”, PBRM1 (polybromo 1) reads inactive
